These are yes or no findings as the source states them, for the method shown. Binding seen in cells or lysates may run through a third protein. Some binding calls cover weakened binding; strength is not graded here. Where a sequence is shown, tags or fusion partners need not be part of it. One block for each binder: values may come before it.
Legend:
[1] = biological target: T1, wild-type calcium sensing-receptor (CaSR), whole length, tagged with EGFP or myc, P41180; assay: co-IP; settings: remark: other sources report otherwise
T1 chain: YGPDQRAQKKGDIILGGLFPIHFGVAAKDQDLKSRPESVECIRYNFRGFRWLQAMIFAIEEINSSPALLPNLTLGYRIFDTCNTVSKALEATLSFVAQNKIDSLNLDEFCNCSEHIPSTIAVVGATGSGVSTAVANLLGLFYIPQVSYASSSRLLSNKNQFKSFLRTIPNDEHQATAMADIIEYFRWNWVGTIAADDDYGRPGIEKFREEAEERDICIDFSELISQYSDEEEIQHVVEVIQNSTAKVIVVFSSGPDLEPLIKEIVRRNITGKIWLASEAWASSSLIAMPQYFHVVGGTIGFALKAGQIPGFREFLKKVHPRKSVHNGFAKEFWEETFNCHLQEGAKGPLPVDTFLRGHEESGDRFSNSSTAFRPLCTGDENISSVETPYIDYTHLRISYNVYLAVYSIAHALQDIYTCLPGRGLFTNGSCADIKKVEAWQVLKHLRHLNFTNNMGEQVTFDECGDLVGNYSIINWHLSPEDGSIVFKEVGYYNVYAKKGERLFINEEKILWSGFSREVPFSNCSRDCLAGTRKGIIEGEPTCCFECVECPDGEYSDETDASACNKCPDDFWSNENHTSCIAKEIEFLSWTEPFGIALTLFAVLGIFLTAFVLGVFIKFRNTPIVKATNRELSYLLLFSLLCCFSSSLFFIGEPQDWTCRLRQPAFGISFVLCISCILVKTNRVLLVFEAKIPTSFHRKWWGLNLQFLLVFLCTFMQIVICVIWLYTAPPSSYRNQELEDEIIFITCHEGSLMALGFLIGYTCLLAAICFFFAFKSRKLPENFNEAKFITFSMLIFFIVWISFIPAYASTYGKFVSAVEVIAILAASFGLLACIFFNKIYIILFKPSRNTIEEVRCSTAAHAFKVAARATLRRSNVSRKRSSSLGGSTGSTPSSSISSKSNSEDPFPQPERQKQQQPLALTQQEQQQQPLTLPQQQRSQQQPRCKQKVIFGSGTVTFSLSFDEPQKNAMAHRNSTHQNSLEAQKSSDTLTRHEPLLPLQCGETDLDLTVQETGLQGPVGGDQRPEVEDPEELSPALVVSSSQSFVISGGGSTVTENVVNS

[2] = biological target: T2, exon 5-deficient mutant calcium sensing-receptor (mCaSR), tagged with EGFP or myc (UniProt P41180); assay: co-IP
T2 sequence: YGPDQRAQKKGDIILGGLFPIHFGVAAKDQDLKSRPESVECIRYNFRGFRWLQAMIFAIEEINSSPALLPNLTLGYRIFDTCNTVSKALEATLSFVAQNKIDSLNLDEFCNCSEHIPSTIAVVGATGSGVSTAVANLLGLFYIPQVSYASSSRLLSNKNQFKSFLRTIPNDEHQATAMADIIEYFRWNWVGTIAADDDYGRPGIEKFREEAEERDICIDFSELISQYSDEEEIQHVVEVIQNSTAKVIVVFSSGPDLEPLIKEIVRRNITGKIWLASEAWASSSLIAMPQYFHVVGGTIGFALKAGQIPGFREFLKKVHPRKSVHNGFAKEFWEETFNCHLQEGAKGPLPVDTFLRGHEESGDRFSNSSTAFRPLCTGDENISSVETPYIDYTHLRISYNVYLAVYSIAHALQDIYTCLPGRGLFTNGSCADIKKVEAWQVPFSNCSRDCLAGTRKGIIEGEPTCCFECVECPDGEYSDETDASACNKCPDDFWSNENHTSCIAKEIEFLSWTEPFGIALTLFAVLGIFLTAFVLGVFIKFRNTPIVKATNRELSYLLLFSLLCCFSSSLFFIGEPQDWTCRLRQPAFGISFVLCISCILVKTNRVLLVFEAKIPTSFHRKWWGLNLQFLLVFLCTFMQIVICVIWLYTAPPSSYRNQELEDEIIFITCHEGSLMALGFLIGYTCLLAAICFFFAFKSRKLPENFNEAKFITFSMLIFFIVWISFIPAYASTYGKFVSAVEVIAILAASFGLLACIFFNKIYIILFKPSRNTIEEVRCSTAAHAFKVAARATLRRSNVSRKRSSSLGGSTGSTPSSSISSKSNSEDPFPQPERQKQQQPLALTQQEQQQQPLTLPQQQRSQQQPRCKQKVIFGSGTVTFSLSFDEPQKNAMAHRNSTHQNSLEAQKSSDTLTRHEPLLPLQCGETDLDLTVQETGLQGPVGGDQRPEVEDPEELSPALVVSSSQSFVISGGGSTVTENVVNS

binding [1]: binds
B1: wild-type calcium sensing-receptor (CaSR), whole length, tagged with EGFP or myc, P41180 20-1078 (receptor)
chain: T1 chain

binding [2]: binds
B2: wild-type calcium sensing-receptor (CaSR), whole length, tagged with EGFP or myc (receptor, UniProt P41180 20-1078)
chain: T1 chain

binding [2]: binds
B3: exon 5-deficient mutant calcium sensing-receptor (mCaSR), tagged with EGFP or myc (receptor, UniProt P41180)
chain: T2 sequence
